Results published in US10967000B2, “Cell-penetrating peptide, conjugate comprising same and composition comprising same” (GemVax & KAEL Co., Ltd., priority 2012, dated 2021).

Tested on: MCF7, Huh7, HepG2
Experiment: Confocal microscope analysis of intracellular localization of PEP1 and TAT
Assay type: cell-based, human
Details: Pearson's Coeff. of co-localization with nucleus

In the case of “EARPALLTSRLRFIPK (listed as Homo sapiens) [pep1]”, the intracellular localization was “stayed in the cytoplasm without being localized into the nucleus”.
